Data reported in patent publication US12595239B2, “Substituted isoxazoline derivatives” (BASF SE, priority 2021, dated 2026).
Some results were stated once for a whole list of compounds, not compound by compound. For at least one compound, name, drawing or mass did not settle the structure.

Assays:
Assay type in all cases: in vivo
Nezara viridula = experiment: B.8 Green Soldier Stink Bug, soybean pod spray test; conditions: 300 ppm; late 3rd instar, after 5 days
Aedes aegypti = conditions: 2500 ppm; larval mortality, 2 days
Myzus persicae = experiment: B.3 Green Peach Aphid (mixed life stages), systemic artificial diet test; conditions: 2500 ppm; treated aphid diet, 3 days
Procedure, shortened: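 Compounds, formulated in 25% DMSO/75% water, were mixed at several concentrations into liquid artificial diet under a membrane, two replicates. 5–8 adult aphids fed on treated diet for 3 days at about 23±1 °C, 50±5% RH. Mortality and fecundity were scored visually.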

Nephotettix virescens = experiment: B.9 Rice Green Leafhopper, rice seedling spray test; conditions: 300 ppm; adults, after 72 hours
Bemisia argentifolii = experiment: B.12 Silverleaf Whitefly (adults), cotton plant spray test; conditions: 300 ppm, 3 days after treatment
Spodoptera eridania = experiment: B.11 Southern Armyworm 2nd instar larvae, lima bean foliar spray test; conditions: 300 ppm, 4 days after treatment
Procedure, shortened: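 Scoring of mortality and feeding reduction was done 4 days after treatment, relative to untreated controls. Sieva lima beans at the 1st true leaf stage received an electrostatic foliar spray (50:50 acetone:water, 0.01% surfactant), then were bagged with 10–11 larvae at about 25 °C and 20–40% RH.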

[1] = test system: Trialeurodes vaporarirorum; experiment: B.2 Greenhouse Whitefly, microtiter plate eggplant leaf disk test; conditions: 2500 ppm; mortality of hatched crawlers, 6 days
Description: For evaluating control of Greenhouse Whitefly, the test unit consisted of 96-well-microtiter plates containing a leaf disk of eggplant leaf disk with Whitefly eggs. The compounds or mixtures were formulated using a solution containing 75% water and 25% DMSO. Different concentrations of formulated were sprayed onto the insect diet at 2.5 μl, using a custom-built micro atomizer, at two replications. After application, microtiter plates were incubated at 23±1° C., 65±5% RH for 6 days. Mortality of hatched crawlers was then visually assessed.

Plutella xylostella = experiment: B.6 Diamond Back Moth, cabbage leaf disc dip test; conditions: 300 ppm; 3rd instar larvae, 72 hours after treatment
Procedure, shortened: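 Cabbage leaf discs were dipped in compound in 1:1 water:acetone with 0.01% surfactant, air-dried, then infested with ten 3rd instar larvae. Mortality read at 72 h after treatment, with feeding damage scored on a 0–100% scale.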

Dichromothrips corbetti = experiment: B.7 Orchid Thrips, floral-immersion test; conditions: 300 ppm; adult thrips, 72 hours after treatment
Procedure, shortened: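 Orchid petals were dipped in compound diluted in 1:1 acetone:water with 0.01% v/v Kinetic, dried, then sealed with about 20 lab-colony adult thrips. Arenas were held in the dark at about 28 °C, and percent mortality was scored 72 h after treatment.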

Anthonomus grandis = experiment: B.1 Boll weevil (Anthonomus grandis), 96-well microtiter plate diet test; conditions: 2500 ppm; egg and larval mortality, 5 days
Heliothis virescens = experiment: B.4 Tobacco Budworm, microtiter plate diet test; conditions: 2500 ppm; egg and larval mortality, 5 days
Procedure, shortened: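 Compounds in 25% DMSO/75% water sprayed at various concentrations onto diet in microtiter wells each holding 15-25 H. virescens eggs, two replicates. Plates kept 5 days at about 28±1 °C and 80±5% relative humidity; egg and larval mortality then scored visually.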

Measured: mortality in comparison with untreated controls

CN(C1=NOC(c2cc(Cl)cc(Cl)c2)(C(F)(F)F)C1)c1ccc(Cl)c(C(=O)Nc2ccc(F)cc2F)c1 (centres unmarked) [I-25]
at least 75%: all assays above
